Results published in PubChem BioAssay AID504648 (National Center for Advancing Translational Sciences (NCATS), 2011).
Screen size: about 390,000 compounds; about 610 (0.16%) were called active. Inconclusive means that the source gave no clear call. Such entries were picked first, then a sample of the others. Calls follow the shape of the dose curve; as a rule, active = well fitted inhibition curve with a large enough effect; inconclusive = small, poorly fitted or top-dose-only effect, or effect the other way, or another doubt; inactive = no such curve, though single readings can be large or run the other way. Potencies beside an inconclusive call are fits to weak or partial responses and may not hold up.

Assay: Nrf2 qHTS screen for inhibitors: counterscreen for cytotoxicity
Settings: A549 ARE-Fluc cells, CellTiter-Fluor viability, 18-24 h; activity change, negative = cytotoxicity: at 46 µM (top of the series)
In short: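 A549 ARE_Fluc cells in 5% FBS OPTI-MEM were exposed to compounds in concentration-response for 18-24 h at 37 deg C. Viability was read by CellTiter-Fluor fluorescence (Ex 405/Em 525) after 30 min, before the luciferase read.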
% is scaled to controls: 0 for no effect and ±100 for the full control effect; potency is read from the fitted curve at half-maximal effect.

SMILES | activity change, negative = cytotoxicity | Potency
O=C(Nc1ccc([N+](=O)[O-])cc1Cl)c1cc(Cl)cc(Cl)c1O | inactive: -16.1% | –
CC(C)CNC(=O)c1coc(=O)c(Br)c1 | – | inconclusive: 18.4 µM [falling, single point]
CCCCCC(=O)Nc1cccc(C2=NOC3(C2)C[C@@H](C(N)=O)N(C(=O)CC(c2ccccc2)c2ccccc2)C3)c1 (some centres undefined) | – | inconclusive: 29.1 µM [falling, single point]
COc1cc(NS(=O)(=O)c2ccc(NC(=O)C34CC5CC(CC(C5)C3)C4)cc2)ncn1 | – | inconclusive: 23.1 µM [falling, partial curve, poor fit]
Cc1cccc(C)c1NC(=O)c1cccc2c1C(=O)N(C1CCCCC1)C2 | – | inconclusive: 11.6 µM [falling, partial curve, poor fit]
CCc1ccc(/C=C2/C(=O)N(c3ccccc3)C(=S)N2CC(=O)OC)s1 | – | inconclusive: 32.6 µM [falling, partial curve, poor fit]
Nc1c(C(=O)O)ccc2c1C(=O)c1ccccc1C2=O | – | active: 18.4 µM
CC(=O)c1c(C)[nH]c(C(=O)Nc2ccc(C)c(S(=O)(=O)Nc3ccc(C)cc3C)c2)c1C | – | inconclusive: 18.4 µM [falling, single point]
COc1ccc(CNC(=O)Cn2c(=O)nc(-c3ccccc3)c3ccccc32)cc1OC | inactive: -11.7% | –
CCCCC(=O)NC1CC(=O)N(c2ccc3c(c2)OCCO3)C1 (centres undefined) | inactive: 2.51% | –
Cc1cccc(C2=NOC(=O)/C2=C\c2ccccc2F)c1 | inactive: 14.2% | –
CC1CCCN(C(=O)CSc2c3c(nc4cc(Cl)ccc24)CCCC3)C1 (centres undefined) | – | inconclusive: 20.6 µM [falling, single point]
O=C(CCCN1C(=O)S/C(=C\C=C\c2ccccc2)C1=O)Nc1ccc(O)cc1 | – | inconclusive: 23.1 µM [falling, single point]
COc1ccc(Cn2c(C(=O)O)c(CNCc3ccccc3F)c3ccc(OC)cc32)cc1 | – | inconclusive: 6.51 µM [falling, partial curve]
CCc1cccc(C)c1NS(=O)(=O)c1c(C(=O)N2CCC(C)CC2)c(C)n(C)c1C | inactive: -5.33% | –
Cc1cc(N2CCOCC2)ccc1/C=C\[N+](=O)[O-] | – | inconclusive: 29.1 µM [falling, single point]
CCN(CC)CCOc1ccc2c(c1)C(=NO)c1cc(OCCN(CC)CC)ccc1-2 | – | active: 8.2 µM
CCOc1ccccc1NC(=O)C(OC(=O)c1ccccc1O)c1ccccc1 (centres undefined) | inactive: -3.65% | –
NC(=S)N1OC[C@@H]2COc3ccc4ccccc4c3[C@@H]21 | inactive: -20.3% | –
CC(C)(C)Nc1nc(C#N)nc(Nc2ccccc2)n1 | inactive: 2.49% | –
O=C(c1ccccc1)N1CCN(CCc2ccncc2)CC1 | inactive: 0.175% | –
Clc1cccc(-c2ccc(CNCCSc3nnnn3-c3ccccc3)o2)c1 | – | inconclusive: 20.6 µM [activator, partial curve, poor fit]
Cc1nc(N)sc1-c1nnc(SCC(=O)Nc2nccs2)n1C | – | inconclusive: 10.3 µM [activator, partial curve, poor fit]

Another view of some results above.
Cc1cccc(C2=NOC(=O)/C2=C\c2ccccc2F)c1
  activity change, negative = cytotoxicity: inactive: 14.2%
CC1CCCN(C(=O)CSc2c3c(nc4cc(Cl)ccc24)CCCC3)C1 (centres undefined)
  Potency: inconclusive: 20.6 µM [falling, single point]
O=C(CCCN1C(=O)S/C(=C\C=C\c2ccccc2)C1=O)Nc1ccc(O)cc1
  Potency: inconclusive: 23.1 µM [falling, single point]

Next entries follow.

SMILES | activity change, negative = cytotoxicity | Potency
CCn1c(SCC(=O)Nc2ccc3c(c2)OCCO3)nnc1C1CC1 | inactive: -1.19% | –
CC(C)(C)c1ccc(/C=C/C(=O)c2ccc(NC3=NCCCS3)cc2)cc1 | – | inconclusive: 18.4 µM [falling, partial curve, poor fit]
COc1ccc(NC(=S)Nc2ccccc2OC)c(OC)c1 | – | inconclusive: 18.4 µM [falling, partial curve, poor fit]
COc1ccccc1C(=O)NCCn1cc(SCC(=O)Nc2ccccc2F)c2ccccc21 | inactive: -21.1% | –
O=C(Nc1cccc([N+](=O)[O-])c1)c1cnccn1 | inactive: -1.55% | –
CCCc1nnc(SCC(=O)NC2CCCCC2)n1CCOC | – | inconclusive: 6.51 µM [falling, partial curve, poor fit]
CC(C)c1nc(N2CCN(C(=O)c3ccco3)CC2)c2c3c(sc2n1)CCCC3 | – | inconclusive: 29.1 µM [falling, single point]
COc1ccc(S(=O)(=O)NCC(c2ccc3c(c2)OCO3)N2CCN(C)CC2)cc1OC (centres undefined) | – | inconclusive: 7.31 µM [activator, partial curve, poor fit]
CCOc1ccc2[nH]c(=O)c(C(c3nnnn3Cc3ccco3)N3CCN(C)CC3)cc2c1 (centres undefined) | inactive: -4.5% | –
CCCCN(C)C(=O)c1cc2cc([N+](=O)[O-])cc(OC)c2oc1=O | – | inconclusive: 29.1 µM [falling, partial curve, poor fit]
COc1cccc(C(=O)NCC(c2cccs2)N2CCc3ccccc32)c1 (centres undefined) | – | inconclusive: 29.1 µM [falling, single point]
COc1ccccc1NS(=O)(=O)c1cccc(NC(=O)c2cc3ccccc3oc2=O)c1 | inactive: -0.749% | –
Cc1cc(/C=C2/SC(=O)NC2=O)c(C)n1-c1ccc(N2CCOCC2)cc1 | – | inconclusive: 5.17 µM [falling, partial curve, poor fit]
Cc1ccc(CS(=O)(=O)c2ncc(Cl)c(C(=O)Nc3nc4ccc(C)cc4s3)n2)cc1 | – | inconclusive: 20.6 µM [falling, single point]
O=C(Cc1ccc(Br)cc1)N/N=C/c1cccnc1 | inactive: 5.66% | –
COc1ccc(/C=C/c2cc(-c3ccc(C)cc3)o[n+]2C)cc1 | – | inconclusive: 14.6 µM [falling, partial curve, poor fit]
COc1cccc(-c2nc(SCC(=O)Nc3ccc4c(c3)OCCO4)c(-c3ccccc3)[nH]2)c1 | – | inconclusive: 23.1 µM [falling, single point]
O=C(NC(NC(=S)Nc1c(Cl)cc(Cl)cc1Cl)C(Cl)(Cl)Cl)OCc1ccccc1 (centres undefined) | – | inconclusive: 10.3 µM [falling, partial curve]
CCCC1OC(c2cc3c(cc2Cl)OCO3)OCC1CC (centres undefined) | – | inconclusive: 32.6 µM [activator, partial curve, poor fit]
Cc1ccc(N2N=C(c3ccc(F)cc3)CC2c2ccco2)cc1 (centres undefined) | – | inconclusive: 25.9 µM [activator, partial curve, poor fit]
Cc1c(Cl)cccc1Nc1nc(NCCO)c2ccccc2n1 | inactive: -7.01% | –
CCOc1ccc(-n2c(C)c(C(=O)OC)c3cc(O)ccc32)cc1 | inactive: 0.354% | –
N=c1c(C(=O)NCc2ccco2)cc2c(=O)n3ccccc3nc2n1Cc1ccc(Cl)cc1 | – | inconclusive: 29.1 µM [falling, single point]

Looked up by compound from above:
SMILES | activity change, negative = cytotoxicity | Potency
CC(C)(C)c1ccc(/C=C/C(=O)c2ccc(NC3=NCCCS3)cc2)cc1 | – | inconclusive: 18.4 µM [falling, partial curve, poor fit]
CCCc1nnc(SCC(=O)NC2CCCCC2)n1CCOC | – | inconclusive: 6.51 µM [falling, partial curve, poor fit]

(listing goes on)

SMILES | activity change, negative = cytotoxicity | Potency
FC(F)(F)c1cccc(NCc2cn3cccnc3n2)c1 | – | inconclusive: 2.91 µM [activator, partial curve, poor fit]
CN(C)CCNC(=O)c1cccc2nc3c(ccc4ccccc43)nc12 | – | inconclusive: 18.4 µM [falling, single point]
Cc1cc(NCCN2CCOCC2)c2ccc3ccccc3c2n1 | – | inconclusive: 18.4 µM [falling, single point]
Fc1ccc(NC(=S)NNc2ncc(C(F)(F)F)cc2Cl)c(F)c1 | – | inconclusive: 29.1 µM [falling, single point]
Cc1ccc(S(=O)(=O)N2CCN(C(=O)CSC(=S)N3CCCC3)CC2)c(C)c1 | inactive: -0.163% | –
COc1ccccc1CN(C)CC(=O)Nc1ccccc1-c1ccccc1 | – | inconclusive: 29.1 µM [falling, single point]
CCOc1ccc(NC(=O)c2nn(C)c3c2CS(=O)(=O)c2ccccc2-3)cc1 | inactive: -1.01% | –
O=Cc1c(N2CCCCCC2)nc2ccccn2c1=O | – | inconclusive: 0.291 µM [falling, full curve]
O=C(Nc1cccc(Cl)c1)c1cccc(Oc2ccc([N+](=O)[O-])cc2Cl)c1 | inactive: -24.8% | –
N=c1c2c(-c3ccccc3)c(-c3ccccc3)n(Cc3ccco3)c2ncn1CCCn1ccnc1 | – | inconclusive: 29.1 µM [falling, single point]
COc1ccc(-c2cc(-c3nnc(COC(=O)C4CC4C)o3)c3ccccc3n2)cc1OC (centres undefined) | – | inconclusive: 23.1 µM [falling, partial curve, poor fit]
CC(C)C(=O)N1N=C(c2ccc(NS(C)(=O)=O)cc2)CC1c1cccs1 (centres undefined) | – | inconclusive: 29.1 µM [falling, single point]
Brc1ccc2c(c1)OCCOCCOCCOCCOCCOCCO2 | inactive: -12.4% | –
CCc1c(C)sc(NC(=O)c2cc(-c3cccc(Cl)c3)on2)c1C#N | inactive: 2.32% | –
Cc1cccc(N2CCN(C(=O)c3ccccc3SCC(=O)N3CCCC3)CC2)c1C | – | inconclusive: 29.1 µM [falling, single point]
CCCC(C)NC(=O)COc1ccc(S(=O)(=O)c2ccc(OCC(=O)NC(C)CCC)cc2)cc1 (centres undefined) | inactive: 1.08% | –
CCC(C)N1CC(=O)N2C(c3ccc(OC)cc3OC)c3[nH]c4ccccc4c3C[C@H]2C1=O (some centres undefined) | inactive: 13.8% | –
O=C(NNC(=O)c1cc(-c2ccc(Cl)cc2Cl)nc2ccccc12)Nc1ccccc1 | – | inconclusive: 18.4 µM [falling, single point]
Cc1ccc(CN2C(=O)N/C(=C\c3cccn3-c3cccc(C(=O)O)c3)C2=O)cc1 | – | inconclusive: 18.4 µM [falling, partial curve, poor fit]
COc1ccccc1N1CCN(C(=O)CN(c2ccc(C)c(C)c2)S(C)(=O)=O)CC1 | – | inconclusive: 0.58 µM [activator, single point]
COc1cccc(-c2nnc(SCN3C(=O)c4ccccc4C3=O)n2C)c1 | – | inconclusive: 23.1 µM [activator, partial curve, poor fit]
O=C(CSc1nnnn1C1CCCC1)N1CCCc2ccccc21 | – | inconclusive: 2.59 µM [activator, full curve, poor fit]
CCOc1ccc(N2CC(c3nc4ccccc4n3CCCOc3ccccc3OC)CC2=O)cc1 (centres undefined) | – | inconclusive: 16.4 µM [falling, partial curve, poor fit]
